Source: PubChem BioAssay AID504795 (Drosophila RNAi Screening Center, 2011)
This is not the whole library: the list holds selected reagents. 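Every listed dsRNA shows some phenotype; how reagents were selected for listing is not stated.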 A plus sign joins genes that one reagent is predicted to hit. No sequences are given here.

- Aim: 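Knock-downs causing abnormal branching, bundling, swelling or growth of cultured neurons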 (primary screen)
- Cells: primary Drosophila neurons and glia
- Reagent: long dsRNA against Drosophila genes, 250 ng dsRNA per well
- Time to read-out: one week
- Read-out: 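Descriptive morphology terms assigned by visual inspection of live automated images of GFP-marked cells, taken one week after adding 250 ng dsRNA per well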

no.	gene knocked down	amplicon	phenotype seen, replicate 1	phenotype seen, replicate 2
1	fz2	DRSC10087	abnormal cell clusters	
2	myd	DRSC15512	sheet-like cell extensions	
3	CG11159	DRSC06050	abnormal cell clusters	
4	ken	DRSC04696	too many neurite branches	
5	e	DRSC16936	too many neurite branches	
6	Osi4	DRSC12134	abnormal cell clusters	
7	RnrS	DRSC07533	too many neurite branches	
8	svp	DRSC15311	too many neurite branches	
9	CG33998	DRSC05747	axon bundles split apart	
10	CG30339	DRSC05168	abnormal cell clusters	
11	CG17375	DRSC02614	more self-contacts of neurites	
12	CG5323	DRSC06929	beaded; swollen axons	
13	Tpst	DRSC19724	too many neurite branches	
14	CG34309	DRSC14838	axon bundles split apart	
15	CG34284	DRSC14773	too many neurite branches	
16	CG11437	DRSC11659	fewer cells	
17	CG30026	DRSC05276	axon bundles split apart	
18	CG13991	DRSC02323	fewer cells	
19	CG30419	DRSC22519	abnormal cell clusters	
20	Adgf-B	DRSC10568	cell fragments present	
21	Jhbp7	DRSC14408	reduced axon outgrowth	
22	CG1941	DRSC06802	abnormal cell clusters	
23	Lmpt	DRSC09866	cell fragments present	
24	CG8483	DRSC16430	too many neurite branches	
25	Liprin-beta	DRSC09795	abnormal cell clusters	
26	CG13675	DRSC10034	too many neurite branches	
27	Lip2	DRSC02578	axon bundles split apart	
28	ens	DRSC08454	too many neurite branches	
29	InR	DRSC16717	fewer cells	
30	brk	DRSC18745	abnormal cell clusters	
31	FeCH	DRSC16948	too many neurite branches	
32	Bap170	DRSC21826	axon bundles split apart	
33	CG11504	DRSC14318	cell fragments present	
34	ena	DRSC07610	axon bundles split apart	
35	CG13324	DRSC06361	axon bundles split apart	
36	D19A	DRSC11133	axon bundles split apart	
37	CG10631	DRSC02081	axon bundles split apart	
38	CG32488	DRSC21537	axon bundles split apart	
39	CG18449	DRSC06754	too many neurite branches	
40	Spase22-23	DRSC15857	cell fragments present	
41	tna	DRSC09053	axon bundles split apart	
42	Srp9	DRSC10973	sheet-like cell extensions	
43	Prosalpha1R + Prosalpha1	DRSC07515	weaker green signal	
44	CG7650	DRSC10898	axon bundles split apart	
45	CG33341	DRSC22887	beaded; swollen axons	
46	CG12825	DRSC06174	too many neurite branches	
47	CG33489	DRSC10588	abnormal cell clusters	
48	RpS4	DRSC11272	abnormal cell clusters	too many neurite branches
49	Dcr-2	DRSC06992	too many neurite branches	
50	CG8301	DRSC16405	too many neurite branches	
51	metro	DRSC06725	axon bundles split apart	
52	Ude	DRSC15324	too many neurite branches	
53	CG17475	DRSC15238	axon bundles split apart	
54	Syn1	DRSC11804	axon bundles split apart	
55	sicily	DRSC19704	fewer cells	
56	CG33978	DRSC17106	too many neurite branches	
57	zpg	DRSC09702	abnormal cell clusters	
58	pum	DRSC17037	reduced axon outgrowth	axon bundles split apart
59	CG3703	DRSC18173	too many neurite branches	
60	PAN3	DRSC08190	too many neurite branches	
61	Proc	DRSC03009	too many neurite branches	
62	CG17292	DRSC02594	axon bundles split apart	
63	CG32432	DRSC11703	fewer cells	
64	CG31161	DRSC16144	axon bundles split apart	
65	CG5853	DRSC02906	abnormal cell clusters	
66	Fadd	DRSC14122	abnormal cell clusters	

Just “phenotype seen, replicate 1” (8 entries from above):
sicily [DRSC19704]: fewer cells
CG33978 [DRSC17106]: too many neurite branches
zpg [DRSC09702]: abnormal cell clusters
pum [DRSC17037]: reduced axon outgrowth
CG3703 [DRSC18173]: too many neurite branches
PAN3 [DRSC08190]: too many neurite branches
Proc [DRSC03009]: too many neurite branches
CG17292 [DRSC02594]: axon bundles split apart

Next reagents follow:
no.	gene knocked down	amplicon	phenotype seen, replicate 1	phenotype seen, replicate 2
67	siz	DRSC11689	fewer cells	
68	cyp33 + CG34194	DRSC05666	too many neurite branches	
69	CG3603	DRSC18317	too many neurite branches	
70	Buffy	DRSC05957	axon bundles split apart	
71	fl(2)d	DRSC07620	abnormal cell clusters	
72	Gos28	DRSC16292	sheet-like cell extensions	
73	Trm7-34	DRSC16171	abnormal cell clusters	
74	CG14440	DRSC17933	abnormal cell clusters	
75	Inx7	DRSC18784	sheet-like cell extensions	
76	CG9166	DRSC07842	bundles split and too many branches	
77	BORCS7 + CG13430	DRSC06707	beaded; swollen axons	
78	CG13285	DRSC09960	too many neurite branches	
79	eIF3m	DRSC07142	beaded; swollen axons	
80	CG17508	DRSC07771	too many neurite branches	
81	CG18675	DRSC08536	beaded; swollen axons	
82	fred	DRSC00599	axon bundles split apart	
83	CG13437	DRSC06397	axon bundles split apart	
84	vls	DRSC02101	too many neurite branches	
85	ImpE3	DRSC16716	abnormal cell clusters	
86	ND-B14	DRSC07029	axon bundles split apart	
87	Mpcp1	DRSC07337	axon bundles split apart	
88	ovo	DRSC18812	sheet-like cell extensions	
89	Adk2	DRSC09827	axon bundles split apart	
90	CG13130 (retired record)	DRSC02226	too many neurite branches	
91	CG13075	DRSC09958	sheet-like cell extensions	
92	CG17328	DRSC22448	too many neurite branches	
93	Bdp1	DRSC03192	reduced axon outgrowth	
94	Miox	DRSC10747	too many neurite branches	
95	Sap130	DRSC09680	axon bundles split apart	
96	RpL7	DRSC03417	axon bundles split apart	axon bundles split apart
97	Irbp	DRSC17007	abnormal cell clusters	
98	Polr3A	DRSC19766	too many neurite branches	
99	luna	DRSC05253	too many neurite branches	
100	CG15036	DRSC17968	axon bundles split apart	
101	lncRNA:CR42862 + CG33229	DRSC08497	abnormal cell clusters	
102	Vrp1	DRSC04148	axon bundles split apart	
103	mRpL19	DRSC16367	axon bundles split apart	
104	Cpr30F	DRSC02908	axon bundles split apart	
105	CG7054	DRSC16185	axon bundles split apart	
106	CG17211	DRSC02587	axon bundles split apart	
107	CG13723	DRSC10052	axon bundles split apart	too many neurite branches
108	RpS27	DRSC14244	cell fragments present	
109	TwdlK	DRSC16045	sheet-like cell extensions	
